Measurements as given in paper doi:10.1101/2024.03.12.584565.
Residue numbers refer to the chain shown, from its start. No constants are given. Whether binding was seen depends on the method and setting. For some of these results: Binding seen in cells or lysates may run through a third protein. Some entries that bind do so weakly or less than the wild type. For some of these results: Sequences can lack the tags named with a protein.

Amino acid sequences for entries named in this document (tags omitted). Residues count along the entry.
UniProt Q96GD4, residues 65-344: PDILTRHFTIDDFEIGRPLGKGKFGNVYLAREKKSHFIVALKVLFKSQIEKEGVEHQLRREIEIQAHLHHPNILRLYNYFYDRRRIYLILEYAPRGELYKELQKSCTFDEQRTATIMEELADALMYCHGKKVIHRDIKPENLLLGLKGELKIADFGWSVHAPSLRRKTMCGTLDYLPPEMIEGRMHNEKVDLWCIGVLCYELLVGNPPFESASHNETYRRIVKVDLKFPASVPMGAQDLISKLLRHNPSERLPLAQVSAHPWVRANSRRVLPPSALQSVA
UniProt Q9NQS7, residues 819-918: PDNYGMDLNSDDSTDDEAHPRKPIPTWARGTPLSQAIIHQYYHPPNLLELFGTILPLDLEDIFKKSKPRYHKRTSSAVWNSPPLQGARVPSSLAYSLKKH
UniProt Q96FF9: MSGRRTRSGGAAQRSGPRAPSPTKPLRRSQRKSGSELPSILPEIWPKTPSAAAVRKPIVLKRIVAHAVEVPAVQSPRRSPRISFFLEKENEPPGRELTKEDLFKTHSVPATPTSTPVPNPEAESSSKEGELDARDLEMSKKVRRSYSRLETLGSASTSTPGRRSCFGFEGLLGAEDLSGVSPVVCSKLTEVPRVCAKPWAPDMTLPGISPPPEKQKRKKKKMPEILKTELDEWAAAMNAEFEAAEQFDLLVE

How the values were obtained:
[1] = biological target: human aurora B kinase (amino acids 65-344) (human) (UniProt Q96GD4); assay: co-purification of co-expressed proteins
[2] = biological target: T1, Pds5b-5A-Flag in HeLaK cells (human) (UniProt Q9NTI5); assay: co-IP
T1 sequence: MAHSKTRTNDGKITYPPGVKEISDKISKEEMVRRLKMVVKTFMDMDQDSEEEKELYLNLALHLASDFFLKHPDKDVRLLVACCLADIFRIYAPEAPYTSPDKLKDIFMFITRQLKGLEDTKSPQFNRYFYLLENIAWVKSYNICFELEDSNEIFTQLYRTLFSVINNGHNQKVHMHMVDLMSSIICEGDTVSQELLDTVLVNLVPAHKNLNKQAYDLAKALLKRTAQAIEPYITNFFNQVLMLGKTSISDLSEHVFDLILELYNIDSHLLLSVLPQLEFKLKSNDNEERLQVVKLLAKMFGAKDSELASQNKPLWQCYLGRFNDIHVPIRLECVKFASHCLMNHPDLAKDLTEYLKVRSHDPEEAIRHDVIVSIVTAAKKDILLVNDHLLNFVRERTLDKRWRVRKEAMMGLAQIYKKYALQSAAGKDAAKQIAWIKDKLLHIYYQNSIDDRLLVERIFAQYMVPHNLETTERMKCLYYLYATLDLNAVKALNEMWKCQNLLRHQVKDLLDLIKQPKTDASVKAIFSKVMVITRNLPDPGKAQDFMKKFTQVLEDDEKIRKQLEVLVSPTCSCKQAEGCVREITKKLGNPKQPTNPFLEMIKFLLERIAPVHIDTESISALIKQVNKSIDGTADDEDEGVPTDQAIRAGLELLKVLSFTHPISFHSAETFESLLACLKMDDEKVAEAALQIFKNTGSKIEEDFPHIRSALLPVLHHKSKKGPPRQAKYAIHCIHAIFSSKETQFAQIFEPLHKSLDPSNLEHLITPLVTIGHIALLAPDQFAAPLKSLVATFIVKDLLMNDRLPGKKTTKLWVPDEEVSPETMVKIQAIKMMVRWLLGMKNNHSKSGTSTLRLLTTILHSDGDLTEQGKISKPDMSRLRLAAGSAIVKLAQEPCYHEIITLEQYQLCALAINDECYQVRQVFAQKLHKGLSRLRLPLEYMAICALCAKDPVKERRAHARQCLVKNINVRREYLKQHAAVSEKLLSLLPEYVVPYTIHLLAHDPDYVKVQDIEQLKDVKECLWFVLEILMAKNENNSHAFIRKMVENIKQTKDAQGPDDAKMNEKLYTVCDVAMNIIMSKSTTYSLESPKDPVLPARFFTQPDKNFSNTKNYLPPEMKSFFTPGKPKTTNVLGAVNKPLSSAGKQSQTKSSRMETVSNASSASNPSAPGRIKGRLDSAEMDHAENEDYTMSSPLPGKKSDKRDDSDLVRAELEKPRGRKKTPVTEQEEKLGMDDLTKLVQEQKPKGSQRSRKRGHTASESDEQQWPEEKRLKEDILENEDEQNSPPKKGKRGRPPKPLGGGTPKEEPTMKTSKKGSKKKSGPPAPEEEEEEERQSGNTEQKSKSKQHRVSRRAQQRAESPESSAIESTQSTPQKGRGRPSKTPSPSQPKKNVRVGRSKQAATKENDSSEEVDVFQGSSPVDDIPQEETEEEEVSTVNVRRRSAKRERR

[3] = biological target: T2, Pds5b-3A-Flag in HeLaK cells (human) (UniProt Q9NTI5); assay: co-IP
T2 sequence: T1 sequence with A1161S, A1166S

[4] = biological target: T3, Pds5b-2A-Flag in HeLaK cells (human) (UniProt Q9NTI5); assay: co-IP
T3 sequence: T1 sequence with A1177S, A1182S, A1209S

| Substance | binding [1] | binding [2] | binding [3] | binding [4] |
| --- | --- | --- | --- | --- |
| INCENP (amino acids 819-918) (from UniProt Q9NQS7 819-918) (domain or fragment) | binds | – | – | – |
| endogenous sororin (from UniProt Q96FF9 1-252) | – | binds | binds | binds |
